The text below walks through data of patent US20240368286A1.

This assay addresses Cynomolgus monkey GFRAL protein (Biacore analyte) (cynomolgus monkey). Briefly: Biacore SPR. In general terms: SPR reads the build-up and loss of mass on a sensor chip optically.

Results are given in words; binding and its absence hold for the method and conditions named. Binding calls can cover weak binding; strength is not graded here.

B1: 26D7H5bL5a (antibody, V domains shown)
VH: QVQLVQSGAEVKKPGASVKVSCKVSGYTFTDYGMNWVRQAPGQGLEWMGWINTYTGEPTYAQKLQGRVTFTTDTSTSTAYMELRSLRSDDTAVYYCARRYGYDAGIDAWGQGTTVTVSS
VL: DIQMTQSPSSLSASVGDRVTITCRASESVESYGNNLMHWYQQKPGKAPKLLIYLASYLESGVPSRFSGSGSGTDFTLTISSLQPEDFATYYCQQNNESPWTFGGGTKLEIK
Turning to B1, the binding result was “binds”.

B2: 26D7H3aL2c (antibody, V domains shown)
VH: QVQLVQSGAEVKKPGASVKISCKVSGYTFTDYGMNWVRQTPGQGLKWVGWINTYTGEPTYADDFKDRFTFTLDASTSTAYMELRSLRSDDTAVYFCARRYGYDAGIDAWGQGTLVTVSS
VL: EIVLTQSPGTLSLSPGERATLSCRASESVESYGNNLMHWYQQKPGQAPRLLIYLASYLESGVPDRFSGSGSGTDFTLTISRLEPEDFATYYCQQNNESPWTFGQGTKVEIK
Regarding B2, the binding result is on record as “binds”.
